{
  "source": "PubChem BioAssay AID504834",
  "about": "(National Center for Advancing Translational Sciences (NCATS), 2011)",
  "note": "Out of some 320,000 compounds screened, about 22,000 (6.9%) were called active. This list was built around the results that the source calls inconclusive (neither active nor inactive); the mix of calls is not that of the screen. The call rests on the fitted dose curve; in most records, active means well fitted inhibition curve with a large enough effect; inconclusive means small, poorly fitted or top-dose-only effect, or another doubt; inactive means no such curve, though single readings can be large or run the other way. Potencies beside an inconclusive call are fits to weak or partial responses and may not hold up. On the % scale 0 is the no-effect control and ±100 the full control effect; potency means the concentration at half of the fitted maximal effect.",
  "data": [
    {"assay": "Primary qHTS for delayed death inhibitors of the malarial parasite plastid, 96 hour incubation", "settings": "P. falciparum luciferase reporter growth; series mostly up to 28.7 µM; activity change, negative = inhibition: at the top concentration", "in_short": "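P. falciparum expressing integrated firefly luciferase, in erythrocytes at 2% hematocrit, 0.05% parasitemia, incubated with compounds 96 h at 37 C, 5% CO2. Growth inhibition read as loss of luminescence; two-generation exposure targets delayed-death apicoplast inhibitors.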", "values": [
      {"smiles": "Cc1cccc(-c2n[nH]c(=S)n2/N=C/c2ccco2)c1", "activity change, negative = inhibition": "inactive: 39.5%"},
      {"smiles": "CC1CC(C)CN(c2ncc3c(n2)CC(c2ccccc2)CC3=O)C1", "note": "(centres undefined)", "Potency": "inconclusive: 18.5 µM [inhibitor, single point]"},
      {"smiles": "O=C1NC(Cc2c[nH]c3ccccc23)C(=O)N1CCOc1ccc(F)cc1", "note": "(centres undefined)", "activity change, negative = inhibition": "inactive: 3.63%"},
      {"smiles": "COC(=O)CNC(=O)C1Cc2ccccc2CN1S(=O)(=O)c1ccc(F)cc1", "note": "(centres undefined)", "activity change, negative = inhibition": "inactive: -6.94%"},
      {"smiles": "COc1ccc(Nc2nc(N)c([N+](=O)[O-])c(NC3CCCCC3)n2)cc1", "Potency": "active: 10.4 µM"},
      {"smiles": "CC(C)c1onc(C(=O)NC2CCCCC2)c1[N+](=O)[O-]", "activity change, negative = inhibition": "inactive: -27.1%"},
      {"smiles": "O=C(O)C1CCC(CNS(=O)(=O)c2ccc(Cl)cc2)CC1", "note": "(centres undefined)", "activity change, negative = inhibition": "inactive: 0.637%"},
      {"smiles": "COc1cc(NC(=O)c2ccc3nsnc3c2)cc(OC)c1OC", "activity change, negative = inhibition": "inactive: -15.5%"},
      {"smiles": "COc1cccc(-c2cc(C(=O)Nc3ccccc3SC)no2)c1", "activity change, negative = inhibition": "inactive: 16.3%"},
      {"smiles": "CCOC(=O)N1CCN(C(=O)c2ccc3c(c2)NC(=O)C(N2CCOCC2)S3)CC1", "note": "(centres undefined)", "Potency": "inconclusive: 18.5 µM [inhibitor, single point]"},
      {"smiles": "O=C(Nc1ncc(Br)s1)C1CCCN1S(=O)(=O)c1cccc2cccnc12", "note": "(centres undefined)", "Potency": "inconclusive: 2.94 µM [inhibitor, single point]"},
      {"smiles": "O=S(=O)(c1ccc(O)cc1)c1ccc(O)cc1", "Potency": "inconclusive: 0.0329 µM [inhibitor, full curve, poor fit]"},
      {"smiles": "Cc1ccccc1C(=O)N[C@H](C(=O)Nc1ccc(Cl)c(Cl)c1)C(C)C", "Potency": "inconclusive: 13.1 µM [inhibitor, single point]"},
      {"smiles": "COc1cc(NC(=O)Cn2ccsc2=N)cc(OC)c1", "Potency": "inconclusive: 11.7 µM [inhibitor, partial curve]"},
      {"smiles": "O=C(CCSCc1ccc(Cl)cc1)NC1CCCC1", "Potency": "inconclusive: 18.5 µM [inhibitor, single point]"},
      {"smiles": "O=c1oc(/C=C/c2ccc([N+](=O)[O-])s2)nc2ccccc12", "Potency": "active: 0.0828 µM"},
      {"smiles": "O=c1cc(-c2ccccc2Cl)oc2c(NS(=O)(=O)c3ccccc3C(F)(F)F)ccc(O)c12", "Potency": "inconclusive: 18.5 µM [inhibitor, single point]"},
      {"smiles": "COc1ccc(C2CC(c3ccccc3)=NN2C(=O)COC(=O)c2cccnc2Cl)cc1", "note": "(centres undefined)", "Potency": "inconclusive: 10.4 µM [inhibitor, single point]"},
      {"smiles": "Cn1nc(C(F)(F)F)c(C(=O)Nc2ccc(F)cc2F)c1Sc1cccc(Cl)c1", "Potency": "inconclusive: 7.38 µM [inhibitor, partial curve, poor fit]"},
      {"smiles": "O=C(O)C(Cc1c[nH]c2ccccc12)N1C(=O)C2C3c4ccccc4C(c4ccccc43)[C@@H]2C1=O", "note": "(some centres undefined)", "Potency": "inconclusive: 0.0029 µM [inhibitor, full curve, poor fit]"},
      {"smiles": "CCC(CC)NC(=O)COc1ccc(OC)cc1C=O", "Potency": "inconclusive: 18.5 µM [inhibitor, single point]"},
      {"smiles": "COc1ccc(N2CCN(C(=O)CCS(=O)(=O)c3ccc4c(c3)NC(=O)CO4)CC2)cc1", "Potency": "inconclusive: 13.1 µM [inhibitor, single point]"},
      {"smiles": "Cc1nc([N+](=O)[O-])cn1CC(=O)Nc1ccc(F)c(Cl)c1", "Potency": "inconclusive: 0.928 µM [inhibitor, partial curve, poor fit]"},
      {"smiles": "O=C(CSc1ccc2ccccc2n1)NCCC1=CCCCC1", "Potency": "inconclusive: 11.7 µM [inhibitor, single point]"},
      {"smiles": "COc1ccc(C(c2sc3nc(C)nn3c2O)N2CCC(C(N)=O)CC2)cc1OC", "note": "(centres undefined)", "Potency": "inconclusive: 11.7 µM [inhibitor, partial curve, poor fit]"},
      {"smiles": "O=C(N/N=C/c1cccc(O)c1)c1cc2c(ccc3ccccc32)o1", "Potency": "inconclusive: 18.5 µM [inhibitor, single point]"},
      {"smiles": "CN(CCO)c1nc(N)c2c(N)nc3c(c2c1C#N)CC(=O)N3Cc1cccs1", "Potency": "inconclusive: 8.28 µM [inhibitor, partial curve, poor fit]"},
      {"smiles": "O=C(Nc1cccnc1Cl)c1ccc(Cl)c([N+](=O)[O-])c1", "Potency": "inconclusive: 13.1 µM [inhibitor, single point]"},
      {"smiles": "CC(CN1CCCC1)OC(=O)c1ccccc1Cl", "note": "(centres undefined)", "Potency": "inconclusive: 1.85 µM [inhibitor, full curve]"},
      {"smiles": "C/C(=N\\NC(=O)c1cccc(S(=O)(=O)N2CCCC2)c1)c1cccs1", "activity change, negative = inhibition": "inactive: 2.58%"},
      {"smiles": "CCCc1cc(=O)[nH]c(SCC(=O)N2CCOCC2)n1", "Potency": "inconclusive: 7.38 µM [inhibitor, partial curve, poor fit]"},
      {"smiles": "CCOc1ccc(S(=O)(=O)Nc2ccc(C(=O)N/N=C/c3c(C)nn(-c4ccccc4)c3N3CCCC3)cc2)cc1", "Potency": "inconclusive: 11.7 µM [inhibitor, single point]"},
      {"smiles": "CC(=O)c1cn(CCC(C)C)c(=O)[nH]c1=O", "activity change, negative = inhibition": "inactive: 1.63%"},
      {"smiles": "CCN(CC)S(=O)(=O)c1ccc2[nH]c(=O)cc(C(=O)Nc3cccc(C(C)=O)c3)c2c1", "Potency": "inconclusive: 2.33 µM [inhibitor, single point]"},
      {"smiles": "CCN(CC)S(=O)(=O)c1ccc(OCC(=O)NCc2ccccc2)cc1", "Potency": "active: 9.28 µM"},
      {"smiles": "Cc1ccccc1C(=O)/C=C1/SCC(=O)N1C", "activity change, negative = inhibition": "inactive: 49.5%"},
      {"smiles": "CCN(c1ccc(C)cc1C)S(=O)(=O)c1nnc(NC(=O)C(C)(C)C)s1", "Potency": "inconclusive: 18.5 µM [inhibitor, single point]"},
      {"smiles": "COc1cccc(NC(=O)CCSc2ccc(C)cc2)c1", "activity change, negative = inhibition": "inactive: 51.3%"},
      {"smiles": "CC(C)Cn1c(-c2csc3c2CCCC3)n[nH]c1=S", "Potency": "inconclusive: 9.28 µM [inhibitor, single point]"},
      {"smiles": "Cc1ccc(Cl)cc1Nc1nc(-c2sc(NC(=O)c3cccc(Cl)c3)nc2C)cs1", "Potency": "inconclusive: 8.28 µM [inhibitor, partial curve, poor fit]"},
      {"smiles": "FC(F)(F)c1ccccc1NC(=S)N1CCN(Cc2ccc3c(c2)OCO3)CC1", "Potency": "inconclusive: 0.522 µM [inhibitor, partial curve, poor fit]"},
      {"smiles": "Cc1cccc(NC(=O)c2nc[nH]c2C(=O)NC2CCN(C(=O)OC(C)(C)C)CC2)c1", "Potency": "inconclusive: 11.7 µM [inhibitor, single point]"},
      {"smiles": "CC(C)(C)c1ccc(C(=O)Nc2nnc(C3=COCCO3)o2)cc1", "Potency": "active: 9.28 µM"},
      {"smiles": "O=C(CN1CCN(Cc2ccc3c(c2)OCO3)CC1)Nc1cc(S(=O)(=O)N2CCCC2)ccc1Cl", "Potency": "inconclusive: 9.28 µM [inhibitor, single point]"}
    ]}
  ]
}
